Tested on: amastigote forms of T. cruzi CL Brener strain
Assay: Anti-trypanosomal activity assay (beta-galactosidase reporter, infected LLC-MK2 cells)
Type: cell-based
Details: anti-trypanosomal pEC50 minus cruzain pKi
Protocol: Assays were performed against amastigote forms of T. cruzi CL Brener strain, which expresses β-galactosidase derived from Escherichia coli, infecting monkey kidney (LLC-MK2) cells as described. Previously, LLC-MK2 host cells were cultivated in 96-wells microplates (10^3 cells/well). […] Then, the wells were washed with PBS to remove the extracellular parasites and the tested compounds were added in the final concentrations of 0.031, 0.125, 0.5, 2.0, 8.0, 32.0, 128 and 512 μM. After this, the microplates were incubated at 37°C, in CO2 atmosphere (5%), for 5 days. Then, 10 μL of FluoReporter lacZ/Galactosidase Quantitation Kit (Molecular Probes, ThermoFisher Scientific) were added and after 30 minutes the fluorometric reaction was read in a microplate reader (Synergy H1, Biotek) at 386 nm excitation and 448 nm emission. The metabolism of the substrate is directly correlated with the amount of β-galactosidase activity and, therefore, the number amastigotes. The percentage of activity for each compound was determined from the following formula: %activity = 100 –{[(X-PC)/(NC-PC)]x100}, where the optical density values of the samples (X), the positive controls (PC) and negative controls (NC) were used. Culture medium alone was used as positive control (PC) and cells with medium and 0.6% DMSO (v/v) as negative control (NC). All assays were performed in triplicate with two independent experiments.

Going from `COc1cc(N2CCN(C(=O)[C@@H]3CCCC[C@H]3C(=O)NC3(C#N)CC3)[C@H](C)C2)ccc1C1CC1` [Compound 11] to `Cc1nn(C)c2cc(N3CCN(C(=O)[C@@H]4CCCC[C@H]4C(=O)NC4(C#N)CC4)[C@H](C)C3)ccc12` [Compound 12], the “pEC50 − pKi” value falls from 1.0 to 0.4.

With `N#CC1(NC(=O)[C@H](Cc2ccccc2)N[C@H](c2ccccc2)C(F)(F)F)CC1` [Compound 5, (S)-N-(1-cyanocyclopropyl)-3-phenyl-2-(((R)-2,2,2-trifluoro-1-phenyl-ethyl)amino)propanamide] the “pEC50 − pKi” value was 1.3.

Reference: paper PMC5344518, “Anti-trypanosomal activity of non-peptidic nitrile-based cysteine protease inhibitors” (PLoS Neglected Tropical Diseases, 2017)
